Data source: PubChem BioAssay AID743448 (Peter MacCallum Cancer Centre, 2014)
Assay: 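Find knock-downs giving vorinostat-specific cell death in several colon cancer lines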 (follow-up of hits). Cells: four human colon cancer cell lines: HCT116-VR (vorinostat-resistant HCT116 derivative), SW480, SW620 and LIM1215. Knock-down reagent: siRNA pool against human genes, 40 nM siRNA pool. Time to read-out: drug added two days after transfection, read one day later. Challenge: vorinostat 2.5 µM on one half of each plate, etoposide 5 µM on the other half. Cell line and drug panel: SW480 cells with vorinostat. Detection: 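Caspase luminescence and viability fluorescence, each expressed relative to mock transfection and also as robust z-scores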. Scale: caspase ratio to mock: higher = more caspase activity than mock; viability ratio to mock: higher = more live cells than mock; caspase robust z-score: higher = more caspase activity, more apoptosis. Hit rule: 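Hit means caspase ratio to mock at least 1.6, or viability ratio to mock at most 0.75; wells with strong death in the absence of drug get no call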. Calls: active = caspase or viability hit in this panel; inactive = no change, or unhealthy well.
Shown is a random part of the 106 reagents, under one of the conditions tested. 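Calls are per line and drug panel including etoposide, not vorinostat-specific; gene picks needed hits in two or more extra lines with vorinostat versus etoposide.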 Further read-outs or replicates are left out here.

no.	target	PubChem SID	caspase ratio to mock	viability ratio to mock	caspase robust z-score	Call
1	PLAG1	SID134315699	1.32	0.79	-0.82	inactive
2	EIF2B5	SID135622351	1.58	0.87	-0.26	inactive
3	H1-5	SID134316347	1.81	0.52	0.2	inactive
4	FLII	SID134321439	1.66	1.23	-0.11	active
5	NUP93	SID134324412	1.12	0.93	-1.27	inactive
6	POLR2K	SID135622236	2	0.72	0.64	active
7	NUP58	SID135622626	0.92	0.72	-1.69	active
8	NPEPPS	SID152155599	0.98	0.71	-1.54	active
9	RLN3	SID152151587	1.98	0.87	0.59	active
10	GATA1	SID134314339	2.66	0.96	2.04	active
11	GPER1	SID135621026	2.17	1	1	active
12	SAP130	SID135623281	2.08	0.92	0.81	active
13	ANKRD13C-DT	SID152152825	1.77	0.72	0.14	active
14	TBC1D20	SID152148535	1.83	0.74	0.26	inactive
15	RWDD2A	SID152155993	1.6	0.92	-0.22	active
16	ANO9	SID135624594	2.15	0.93	0.96	active
17	AMDHD2	SID134313510	1.6	0.9	-0.24	active
18	LRP3	SID134323387	1.28	0.98	-0.92	inactive
19	IRX2-DT	SID134321834	2.5	1.04	1.7	active
20	VPS4A	SID134317329	1.82	0.6	0.24	inactive
21	NUP205	SID152152395	1.22	0.6	-1.04	active
22	EIF3I	SID135623766	1.39	0.51	-0.68	inactive
23	PRRT3	SID152150037	2.12	0.88	0.87	active
24	AP5S1	SID134324840	1.85	0.64	0.3	inactive
25	LAD1	SID134321180	2.5	0.76	1.69	active
26	NUP62	SID135622326	1.39	0.9	-0.68	inactive
27	C1orf210	SID152154222	2.01	0.82	0.66	active
28	BDP1	SID152148769	2.33	1.1	1.32	active
29	POLR2D	SID134316254	2.36	0.64	1.39	active
30	TOX4	SID135624154	1.64	0.86	-0.15	active
31	IQSEC1	SID152154675	2.17	0.72	1	active
32	BEGAIN	SID134318275	1.82	1.06	0.23	active
33	PNN	SID152155649	1.73	0.81	0.05	active
34	CBX7	SID135621801	2.11	0.88	0.86	active
35	MSANTD1	SID152155503	1.85	0.78	0.31	active
36	INTS6L	SID152154800	1.32	0.84	-0.82	inactive
37	MICALL2	SID152147720	2.84	1.19	2.42	active
38	PCP4	SID134323861	1.6	0.74	-0.22	inactive
39	DNTTIP2	SID152146868	1.14	1.06	-1.21	inactive
40	NPC1L1	SID152154372	2.33	0.92	1.34	active
41	HPCAL1	SID134321360	1.57	0.95	-0.29	inactive
42	SERTAD1	SID135623986	2.15	0.93	0.95	active
43	RBBP8	SID134315719	1.73	0.98	0.04	active

Targets listed so far whose target name begins with I or i:
target	PubChem SID	caspase ratio to mock	viability ratio to mock	caspase robust z-score	Call
IRX2-DT	SID134321834	2.5	1.04	1.7	active
IQSEC1	SID152154675	2.17	0.72	1	active
INTS6L	SID152154800	1.32	0.84	-0.82	inactive
